Data on one substance can be found in patent publication US10202443.

Protein sequences, listed by entry. Tags and fused reporters are not part of them. Lines headed by an entry give the natural chain unless they say otherwise; changes in a name come on top.
UniProt Q13148: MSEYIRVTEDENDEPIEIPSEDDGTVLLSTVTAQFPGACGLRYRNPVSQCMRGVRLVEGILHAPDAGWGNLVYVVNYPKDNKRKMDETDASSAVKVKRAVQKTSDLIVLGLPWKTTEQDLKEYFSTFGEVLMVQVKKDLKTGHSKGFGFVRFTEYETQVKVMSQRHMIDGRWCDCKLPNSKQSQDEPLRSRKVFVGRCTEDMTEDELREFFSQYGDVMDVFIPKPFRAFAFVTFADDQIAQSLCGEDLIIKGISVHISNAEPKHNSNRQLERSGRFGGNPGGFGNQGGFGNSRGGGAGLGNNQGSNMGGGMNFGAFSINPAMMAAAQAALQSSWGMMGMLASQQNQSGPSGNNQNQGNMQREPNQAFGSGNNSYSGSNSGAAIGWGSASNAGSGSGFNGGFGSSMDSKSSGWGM
UniProt Q04206: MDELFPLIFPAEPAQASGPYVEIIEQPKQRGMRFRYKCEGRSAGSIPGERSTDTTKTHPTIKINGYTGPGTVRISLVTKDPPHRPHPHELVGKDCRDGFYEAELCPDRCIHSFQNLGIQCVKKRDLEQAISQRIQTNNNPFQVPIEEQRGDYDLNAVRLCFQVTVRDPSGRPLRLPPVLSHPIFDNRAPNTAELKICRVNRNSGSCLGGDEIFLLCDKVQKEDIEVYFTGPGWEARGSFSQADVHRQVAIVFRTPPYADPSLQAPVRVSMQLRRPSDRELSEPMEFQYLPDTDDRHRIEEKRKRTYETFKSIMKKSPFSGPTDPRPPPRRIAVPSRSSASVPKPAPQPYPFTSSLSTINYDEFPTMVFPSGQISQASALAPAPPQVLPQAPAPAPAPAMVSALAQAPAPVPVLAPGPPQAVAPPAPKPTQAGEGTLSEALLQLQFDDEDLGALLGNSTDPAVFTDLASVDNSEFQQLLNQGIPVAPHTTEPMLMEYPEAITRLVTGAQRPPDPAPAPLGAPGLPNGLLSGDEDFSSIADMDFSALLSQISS

These are yes or no findings as the source states them, for the method shown. Some entries that bind do so weakly or less than the wild type.

The assay has as its target human recombinant TDP-43_GST Tag (human) (UniProt Q13148). In words: ELISA: TDP-43 coated in dilutions, p65-His 0.2 ug/ml, anti-His-HRP, absorbance at 450 nm. Background: In an ELISA, binding on a coated surface is turned into a signal by an enzyme label.

Take “human recombinant p65-His-Tag (Enzo Life Sciences) (from UniProt Q04206 1-551)”: the binding result is “binds”.
